The values below come from publication PMC13466294 (International Journal of Molecular Sciences, 2026).

One data set has as its system HeLa cells. The data set is classed as cell-based. To be noted: 3 µM, overnight, 37 °C, DMEM with 10% FBS, single-section imaging with DAPI.
A further data set can be described thus: peptide made by a vendor. The note with it: whole synthesis, RP-HPLC.

On to “MKDHLIHNHHKEEHAHAHNKDYDIPTTHHAHHSTENLYFQGSSGSSGMSVIKPEMKIKLCMRGTVNGHNFVIEGEGKGNPYEGTQILDLNVTEGAPLPFAYDILTTVFQYGNRAFTKYPADIQDYFKQTFPEGYHWERSMTYEDQGICTATSNISMRGDCFFYDIRFDGTNFPPNGPVMQKKTLKWEPSTEKMYVRDGVLKGDVNMALLLEGGGHYRCDFKTTYKAKKDVRLPDAHKVDHRIEILKHDKDYNKVKLYENAVARYSMLPSQAKGLQQGGTGGGGSKVLSRVVQLCREKLTRRRRSNRR [AG–Nuc1510, monomeric Azami Green genetically fused at its C-terminus via a linker to Nuc1510]”, for which the “Subcellular localization of AG signal” value in the data set with HeLa cells was “absent from the nuclear region”.
Same read-out and setting: for “MKDHLIHNHHKEEHAHAHNKDYDIPTTHHAHHSTENLYFQGSSGSSGMSVIKPEMKIKLCMRGTVNGHNFVIEGEGKGNPYEGTQILDLNVTEGAPLPFAYDILTTVFQYGNRAFTKYPADIQDYFKQTFPEGYHWERSMTYEDQGICTATSNISMRGDCFFYDIRFDGTNFPPNGPVMQKKTLKWEPSTEKMYVRDGVLKGDVNMALLLEGGGHYRCDFKTTYKAKKDVRLPDAHKVDHRIEILKHDKDYNKVKLYENAVARYSMLPSQAKGLQQGGTGGGGSTLKERCLQVVRSLVKKKRTLRKNDRKKR [AG–Nuc1511, monomeric Azami Green genetically fused at its C-terminus via a linker to Nuc1511]” the value was “absent from the nuclear region”.
Turning to “MKDHLIHNHHKEEHAHAHNKDYDIPTTHHAHHSTENLYFQGSSGSSGMSVIKPEMKIKLCMRGTVNGHNFVIEGEGKGNPYEGTQILDLNVTEGAPLPFAYDILTTVFQYGNRAFTKYPADIQDYFKQTFPEGYHWERSMTYEDQGICTATSNISMRGDCFFYDIRFDGTNFPPNGPVMQKKTLKWEPSTEKMYVRDGVLKGDVNMALLLEGGGHYRCDFKTTYKAKKDVRLPDAHKVDHRIEILKHDKDYNKVKLYENAVARYSMLPSQAKGLQQGGTGGGGSYGRKKRRQRRR [AG–TAT, Azami Green fused to TAT peptide, positive control, reference compound]”, the “Subcellular localization of AG signal” value with HeLa cells is recorded as “nucleolar-targeting ability”.
Take TAMRA-labeled Nuc1510: the “final HPLC purity” value in “peptide made by a vendor” was above 90%.
